Among all 53,000 sequences or so, about 3,700 (7%) were called active.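 How the source made its calls: active means gene knockdowns whose robust z-score for IL-1 alpha signal is at least 2 or at most -2, so actives lie on both sides; inactive means the rest.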 The list shows a part of the results.
Assay: Components of the Cytosolic LPS Sensing Pathway: Gene Identification via Genome-wide siRNA Screen;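 further: robust z of the log signal after scaling to non-targeting control siRNA wells of the plate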
Settings: RAW264.7 macrophages, IL-1a HTRF, actives lie on both sides, screened at 100 nM (by protocol), cells primed 5 h with Pam3CSK4 first
Procedure, shortened: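 Knockdown: 100 nM siRNA, 48h, RAW264.7. Stimulation: Pam3CSK4 5 h, then LipidA via TransIT-TKO 24 h. Output: supernatant IL-1a HTRF, negative-control-normalized, log robust z-score; viability by CellTiter-Glo.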

Row | Sequence | z-score
1 | GCUUCUCAAGAGUGAAAUATT against Gcc2 | inactive: -1.56
2 | GGGAAGUCACUGAAGCCUGTT against Akr7a5 | inactive: 0.591
3 | GGUACGAGAACAACUGACUTT against Acot3 | inactive: 0.269
4 | GCUUGUUCACGGACAAGAATT against Yars2 | inactive: 0.0729
5 | GGAAAUGAAUCUGAUCCUGTT against Ces2a | inactive: 1.76
6 | CCUCGAUUAUAGCAAUACUTT against Slc16a14 | inactive: 1.36
7 | GGAGGACUCAGCACUCUUUTT against E130311K13Rik | inactive: -0.769
8 | GGGAAACUUGAACUUUGAUTT against Rsph1 | inactive: -1.54
9 | GCUCCUACGUGUCAGCCUUTT against Skor1 | inactive: -0.815
10 | CGAUGUGAGUUGCAGAUAUTT against Sp3os | inactive: 1.62
11 | GCUCAGCUGAAAAACUUGCTT against Ankrd53 | inactive: 0.819
12 | GGAAUUUCUGUGGUGGAGATT against Ddit4 | inactive: 0.186
13 | GGCCAAGUUCCUUUGCAUATT against Lacc1 | inactive: 0.274
14 | GGUGUAUGGUGGUGGUAGUTT against Pgap3 | inactive: 0.0533
15 | CCCGGAGAAGUUUUUAUCATT against Sfpq | inactive: 0.223
16 | GGGCAAUUUGGACUGUUUUTT against Jam3 | inactive: -0.973
17 | GGAAUCUGAUCUUAACAUCTT against Tenm1 | inactive: -1.49
18 | CGUUGAUCUACGUUAUAAATT against Car6 | inactive: 0.5
19 | GGAGAUCUGCCAGUGGAAATT against Pigx | inactive: -0.0187
20 | GGAAGUCAACCGAGUCUUCTT against Sp140 | inactive: 0.011
21 | GCACAAGCGUGGAACACAUTT against Dctn2 | inactive: 0.702
22 | GCAUUCUAUACUAUCGUCATT against Olfr314 | inactive: 0.78

Row | Sequence | z-score
23 | GGAUACAUAUAGGUAGAAUTT against Adgrg6 | inactive: -0.662
24 | GGCACCAUUCUGAAUCAGATT against Ddx50 | inactive: 0.78
25 | GGUGCAAUGCAAACUCUACTT against Cldn19 | inactive: 1.35
26 | GCAAGUACCAUGGACCAUGTT against Mbp | inactive: 0.607
27 | GGAUCAUGUUUGUUGACCCTT against Agr3 | inactive: 0.446
28 | GGUAAAAGUGGAACAAGAGTT against Irak3 | inactive: 0.0834
29 | GGUUUCCUUUAUCAAGAAGTT against Snrnp25 | inactive: -0.00388
30 | GCCAAGUGACGAUCAACUATT against Rpusd1 | inactive: 0.804
31 | CCUGACAGUACCAAAAAAUTT against Pax4 | inactive: -0.599
32 | GCAGUUAGUGUUUUUUGACTT against Nlrc4 | inactive: -0.00527
33 | CCUUGGUUGUAUCCAUUUUTT against Cnot10 | inactive: 1
34 | GCACCUUUGAAUGUGAAGUTT against Ccl2 | inactive: -0.408
35 | GGCUUCACUCUGAAGAAUUTT against Nab2 | inactive: 1.1
36 | CCCUCUAAGAAUUAAAAAGTT against Atmin | inactive: 0.707
37 | CCGGUUCAGAUUUGGCUAATT against Icam4 | inactive: 0.48
38 | GCAAGUAAAUAUGAGAACATT against Plxna4 | inactive: -1.17
39 | GCUGUCUCGUCAUUUAAGATT against Dym | inactive: -0.461
40 | GCCGUCUCUGUGUCACAAATT against Sirt1 | active: -2.19
41 | GUCAUCAUGAACCAAGAGATT against Olfr713 | active: -2.18
42 | GGAGUGUUUUACCUCUUUCTT against Nudt13 | inactive: 0.911
43 | GGCCAAACACGUAUCUUUGTT against Snta1 | inactive: -0.122
44 | GGAGACGAAGUGCUUAGGCTT against Gmip | inactive: 1.83

Row | Sequence | z-score
45 | GUAUGUUGACAUUUGCCUGTT against Olfr113 | active: -2.05
46 | GCGCAAGGAUAACUUUCAATT against Inpp5j | inactive: 0.61
47 | GCAGGGAGUGGUUUUAUGATT against Hoxb9 | inactive: 1.34
48 | CCGCGCCGUUGAUUCAUUUTT against Spata17 | inactive: 1.08
49 | GGCUCGACUUGGAGAAAAGTT against Atg13 | inactive: 0.0439
50 | GCCCGGAGAAUAUUAACUATT against Mllt11 | active: 2.21
51 | GGAUCUUCGUCAACAAGCATT against Zmynd10 | inactive: 0.472
52 | GCUCAUUUUAGGCAAAAGATT against Klhdc8a | inactive: 0.401
53 | GGUUUCCAUGGUAACGUGGTT against Tns1 | active: 2.24
54 | GCACAACAUAAGAAGGUGGTT against Klk14 | inactive: -1.34
55 | GGACACAACUCAUUUUCAGTT against Prg3 | inactive: -1.61
56 | GCUCACCAUCAAAUCAGUGTT against Ceacam14 | inactive: 1.15
57 | GGUGGCAGAGUUGUUAUUUTT against Ppp2r2d | inactive: -0.513
58 | CGUUCUAUUCUUGACAACATT against Znf41-ps | inactive: 0.265
59 | CCAUGUCUUGAACUUGGAUTT against Tsks | inactive: 0.793
60 | GCCUAAAACUGCUUUGUAATT against Ccdc97 | inactive: -0.259
61 | GGACCAGAUAACUGCCAAATT against Kif5c | inactive: -0.0347
62 | GGUAGUGAGUACUUUGGAATT against Amy2a5 | inactive: -1.16
63 | GACAAGACAAGUUUUGGUATT against Elmo1 | inactive: -0.442
64 | GGCCAGUUACUUUCUGAAATT against Atp11b | inactive: 1.01
65 | GGAAAUUAAACAGAAACAGTT against Ube2j2 | inactive: -0.471
66 | GCGUAAAGUAAAACAGCUUTT against Nop14 | inactive: 0.818

Row | Sequence | z-score
67 | GGUCAAAGGAAAAAAAUGGTT against Zfp30 | inactive: 1.14
68 | GGCCAUUAAAAACACGGUATT against Eogt | inactive: 1.46
69 | GCGAUUUCUCUAAAUGGCUTT against Rubcnl | inactive: -0.568
70 | GGCAAAAACCAGGAUGAAUTT against Ubap2l | inactive: -0.726
71 | GGCACUCGACAGAACAACUTT against Scamp3 | inactive: -0.56
72 | GGACGUGAGACUUCUUCAGTT against Prr3 | inactive: 0.0189
73 | GCCACUCACAUUAAAUUACTT against Mthfd1 | inactive: -1.09
74 | CCUACAACUAUAAAAGAUGTT against Sp3 | inactive: -0.602
75 | GCGAUAAAGCCAACACACCTT against Nostrin | inactive: -0.346
76 | GCUAAUAACUUUUCAGUGATT against Olfr381 | inactive: 0.549
77 | CCUUUAAUACACUCUUCAATT against Cyp2a12 | inactive: -0.337
78 | GGUAUCACCAUAGAAUUGUTT against Rnf114 | inactive: -0.0623
79 | CGAAGAUCUUAUCAGUAUATT against Cdh7 | inactive: 0.823
80 | GGCAGAAGUUAGCAUAAAUTT against Tbl1xr1 | inactive: 0.916
81 | GGAAGUGGAAUCCUACAAGTT against Celsr2 | inactive: 0.944
82 | GGCAGUAGACACAAACAGATT against Plxdc2 | inactive: 0.791
83 | CCUGCAAUACCUACUACCATT against Prss32 | inactive: -0.0732
84 | GCUUAAAAGUGAAGUCUUGTT against Tmem203 | inactive: -0.615
85 | GGUGUCAGAGUUAAGACAATT against Myocd | inactive: 1.04
86 | CCACUUUCAACUUUCCGCATT against Fgd5 | inactive: -1.94
87 | GGCCAGUGAUGCUGUAGUUTT against Sema6c | inactive: -0.902
88 | GGAAUCAGGAAUGCUACUUTT against Tsr1 | inactive: 0.216

Row | Sequence | z-score
89 | GGCAGCAUAGACUCUGACATT against Rag2 | inactive: -1.35
90 | GGCUGGGAAUUUUACAGUATT against Gpr3 | active: 3.98
91 | GGAUCGAAGUAGAAUGUAUTT against Cpeb2 | inactive: -0.668
92 | GGAACAGAAGGGUAAAGGGTT against Gkn1 | inactive: 0.701
93 | GCUCCUUUGGUUCAACAUCTT against Olfr635 | inactive: -1.78
94 | GGAAAAACAAAUUCAGCAUTT against Zfp280c | inactive: 1.82
95 | CCAUCGGGAUUGACUAUGGTT against Dnajc27 | inactive: -0.878
96 | GGAUAUAGGUGUGAUCUAGTT against Mxra7 | inactive: 0.9
97 | GCUGCUUACUAUCAGAAAATT against Stx12 | inactive: 0.137
98 | GCCUCAAAACUUCUUGUUCTT against Mxd3 | inactive: 0.0291
99 | GGAGUGUUGCCAGUUCCUATT against Tctn2 | inactive: -0.434
100 | GCGGACGAGUCUCUGUUAGTT against Yae1d1 | inactive: -0.573
101 | GGGCAAUCUGCUAUUCUCUTT against Pheta2 | inactive: 0.18
102 | GGAGAGGAGAAAGUACCGUTT against Fcgbp | inactive: 1
103 | GGUACCUUGCCUGACAAACTT against Ids | inactive: 0.112
104 | GGCUCAAGGUUUUCUCUACTT against Olfr710 | inactive: -0.0341
105 | GCCUAUCGUCCAGAUUAUCTT against Senp1 | inactive: 0.919
106 | CCUACACUUCCUUUUAUAGTT against Gapt | inactive: 0.146
107 | GGUCAUAAGCUAUUCCUGUTT against Vmn1r177 | inactive: -1.01

Fetched one by one from above (three):
Row | Sequence | z-score
22 | GCAUUCUAUACUAUCGUCATT against Olfr314 | inactive: 0.78
103 | GGUACCUUGCCUGACAAACTT against Ids | inactive: 0.112
65 | GGAAAUUAAACAGAAACAGTT against Ube2j2 | inactive: -0.471

Excerpt: nos. 5 to 7
Row | Sequence | z-score
5 | GGAAAUGAAUCUGAUCCUGTT against Ces2a | inactive: 1.76
6 | CCUCGAUUAUAGCAAUACUTT against Slc16a14 | inactive: 1.36
7 | GGAGGACUCAGCACUCUUUTT against E130311K13Rik | inactive: -0.769

Source: PubChem BioAssay AID1508600 (Functional Genomics Laboratory (NCATS/FGL), 2020)
